# From US11523995B2, “Compositions and methods for ablating niche cells in testis and other epithelial cells and methods relating thereto” (Duke University, priority 2017, dated 2022)
# For at least one compound, name, drawing or mass did not settle the structure.
# Test system: Sertoli cells
# Experiment: Inhibition of in vitro Sertoli cell ablation with BC by cell death pathway inhibitors
# Type: cell-based, mouse
# Details: 30 min inhibitor pre-treatment, 10 min BC, culture with inhibitor 4 days, neonatal testis
# Method: Fragments of the mouse testis were incubated with 0.02% BC for 10 min. After washing several times with PBS, tissues were placed atop 1.5% agarose blocks (214530; Difco), prepared and placed in 6 well tissue culture plates (353046; Falcon) with ˜500 μl of 10% FBS+DMEM (11995-065; Gibco) to reach halfway up the side of the block. After culture, tissues were washed in PBS and fixed for immunofluorescence. The dog testis tissues were incubated with 0.02% or 0.03% BC for 10 min and cultured with 10% KnockOut Serum Replacement (KSR) (Invitrogen; 10828-028)+DMEM (Yokonishi, T., et al. Methods in Molecular Biology 927: 479-488 (2013)). The culture incubator was supplied with 5% (vol/vol) carbon dioxide in air and maintained at 37° C. Q-VD (OMe)-OPh (A8165; ApexBio), Necrostatin-1, Spautin-1 (Sigma; SML0440), 3-Methyladenine (Cayman; CAS 5142-23-4), LY294002 (Cayman; CAS 154447-36-6), Bafilomycin A1 (Cayman; CAS88899-55-2) were used as cell death inhibitors. Next, we investigated the Sertoli cell death pathway caused by BC treatment. Testes from neonatal pups were pre-treated with 1% DMSO (as a control) or with cell death pathway inhibitors, pan-caspase inhibitor, 2,6-difluorophenoxymethylketone-based inhibitor (Q-VD-OPH), necrosis inhibitor (Necrostatin-1) and autophagy inhibitors, Spautin-1, LY294002, or Bafilomycin A1, for 30 min. […]
structure (smiles),measurement,value
O=c1cc(N2CCOCC2)oc2c(-c3ccccc3)cccc12 [LY294002],rescue of Sertoli cells after BC treatment,partially rescued Sertoli cells
